PubChem BioAssay AID504793 | Drosophila RNAi Screening Center | 2011

Screen: 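Genes required for cells to halt at G2/M after double-strand DNA breaks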 (primary screen)
Cells: Drosophila S2R+ cells
Reagent: long dsRNA against Drosophila genes, about 0.25 µg dsRNA per well
Time to read-out: 4 days of dsRNA, then 4 hours of drug before read-out
Conditions: doxorubicin 0.5 µM for 4 hours to cause double-strand breaks, in cells also given a low, harmless dose of dsRNA against nbs to sensitise the assay
Detection: 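Mitotic index as the number of phospho-histone H3-positive cells in each well following doxorubicin, given as raw counts without normalisation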
Reading the numbers: mitotic cells: higher = more cells in mitosis, weaker G2 arrest
Hit rule: 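Genes are called active only when high mitotic counts were reproduced with independent dsRNAs and mitosis was checked for delay without damage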
Calls: active = confirmed in follow-up tests; inactive = not confirmed
The screen tested about 23,000 reagents; below is an unselected part of those that have a named target and a result. In the full data, 62 (0.27%) were called active. 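Calls come from follow-up tests whose scores are not deposited, so confirmed genes may have low counts here; counts are not normalised per plate.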 Raw values are not corrected between plates. Reagents against one gene are numbered here. Reagent sequences are not shown.

For Cyp9h1 #1, what was measured?
mitotic cells, replicate 1: 5; outcome: inactive

With Cyp9h1 #2, what was measured?
mitotic cells, replicate 1: 2; outcome: inactive

For cl, what does the deposit list?
mitotic cells, replicate 1: 5; outcome: inactive

With PPO2, what was measured?
mitotic cells, replicate 1: 5; outcome: inactive

With slow #1, how do the results read?
mitotic cells, replicate 1: 1; outcome: inactive

With slow #2, how do the results read?
mitotic cells, replicate 1: 7; outcome: inactive

What is on record for slow #3?
mitotic cells, replicate 1: 6; outcome: inactive

What did the screen give for CG10934?
mitotic cells, replicate 1: 12; outcome: inactive

How did the screen score QC?
mitotic cells, replicate 1: 7; outcome: inactive

With CG17712, what does the deposit list?
mitotic cells, replicate 1: 2; outcome: inactive

What did the screen give for CG9308 #1?
mitotic cells, replicate 1: 7; outcome: inactive

What did the screen give for CG9308 #2?
mitotic cells, replicate 1: 6; outcome: inactive

What did the screen give for CG7126 #1?
mitotic cells, replicate 1: 15; outcome: inactive

For CG7126 #2, what does the deposit list?
mitotic cells, replicate 1: 4; outcome: inactive

With CG6195 #1, how do the results read?
mitotic cells, replicate 1: 5; outcome: inactive

What is on record for CG6195 #2?
mitotic cells, replicate 1: 4; outcome: inactive

With CG14744, what was measured?
mitotic cells, replicate 1: 7; outcome: inactive

With Amyrel, how do the results read?
mitotic cells, replicate 1: 9; outcome: inactive

Which result is listed for CG11837?
mitotic cells, replicate 1: 5; outcome: inactive

How did the screen score CG8534?
mitotic cells, replicate 1: 10; outcome: inactive

What is on record for CG9084?
mitotic cells, replicate 1: 6; outcome: inactive

With tomboy20, what does the deposit list?
mitotic cells, replicate 1: 4; outcome: inactive

With CG7304 #1, what was measured?
mitotic cells, replicate 1: 8; outcome: inactive

How did the screen score CG7304 #2?
mitotic cells, replicate 1: 7; outcome: inactive

Sorted by “mitotic cells, replicate 1” (ascending): some entries from above
CG6195 #2 → mitotic cells, replicate 1: 4; outcome: inactive
CG14744 → mitotic cells, replicate 1: 7; outcome: inactive
